Test results reported in paper PMC13323110.

Columns and labels:
[1] = target: N. salsuginis TatB, strep-tagged (Nitratifractor salsuginis); assay: cryo-EM structure; 50 μl N. salsuginis TatBC (A280nm = 8.0) mixed with 50 μl CueO peptide (1 mg/ml), 12 h at 4 °C, in GDN; both purified
[2] = target: N. salsuginis TatC (GFP-His removed) (Nitratifractor salsuginis); assay: as above
[3] = target: N. salsuginis TatAHisC_(strep) complex (Nitratifractor salsuginis); assay: pull-down; N. salsuginis TatABC, TatBC or TatAC held by TatC-strep on Streptactin XT resin and washed, purified CueO or MdoD added for 2 h; 50 mM sodium phosphate pH 8.0, 150 mM NaCl, 1 mM EDTA, 0.02% GDN; immunoblot for the tags; both purified

Row | Binder | binding [1] | binding [2] | binding [3]
1 | MQRRDFLKYSVALGVASALPLWSRAVFA (peptide, UniProt P36649 1-28) [E. coli CueO signal peptide (residues 1-28)] | binds | binds | –
2 | E. coli MdoD, full length, Myc-tagged (protein, UniProt P40120 33-551) ADSDIADGQTQRFDFSILQSMAHDLAQTAWRGAPRPLPDTLATMTPQAYNSIQYDAEKSLWHNVENRQLDAQFFHMGMGFRRRVRMFSVDPATHLAREIHFRPELFKYNDAGVDTKQLEGQSDLGFAGFRVFKAPELARRDVVSFLGASYFRAVDDTYQYGLSARGLAIDTYTDSKEEFPDFTAFWFDTVKPGATTFTVYALLDSASITGAYKFTIHCEKSQVIMDVENHLYARKDIKQLGIAPMTSMFSCGTNERRMCDTIHPQIHDSDRLSMWRGNGEWICRPLNNPQKLQFNAYTDNNPKGFGLLQLDRDFSHYQDIMGWYNKRPSLWVEPRNKWGKGTIGLMEIPTTGETLDNIVCFWQPEKAVKAGDEFAFQYRLYWSAQPPVHCPLARVMATRTGMGGFSEGWAPGEHYPEKWARRFAVDFVGGDLKAAAPKGIEPVITLSSGEAKQIEILYIEPIDGYRIQFDWYPTSDSTDPVDMRMYLRCQGDAISETWLYQYFPPAPDKRQYVDDRVMS | – | – | no binding

No constants are given. Whether binding was seen depends on the method and setting. For part of these data: A result given as binding can be weak or reduced; the word gives no strength. For part of these data: Tags and fused reporters may be left off the sequences shown.
